PubChem BioAssay AID1259254 – NCATS – 2017
Shown is one part, drawn at random, of about 59,000 reagents. About 1,550 of them (2.6%) count as active. 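G2 share is only a proxy for re-replication; each gene was hit by three separate siRNAs, and active genes were retested.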 Raw values are not corrected between plates. Entries without a mark were called inactive. Reagents against one gene are numbered here. The record does not give: the amount of reagent.

- Assay: 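Genome-wide screen for genes that prevent DNA re-replication in cancer cells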 (primary screen)
- Cells: human HCT116 colorectal cancer cells
- Reagent: single siRNA against human genes
- Timing: 3 days
- Detection: 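Nuclei stained with Hoechst and imaged; cell-cycle phase assigned by DNA content; G2 share scaled per plate, non-targeting siRNA 0%, GMNN siRNA 100%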
- Scale: G2 robust z-score and G2 cells, % of GMNN control: higher = more G2 cells, more excess DNA replication; raw share of cells in G2: higher = larger share of cells with G2 DNA content
- Active means: 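Active siRNAs have a G2 robust z of 5 or more median absolute deviations over the median, which in these data means about 38% or higher of GMNN control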

gene	reagent	G2 robust z-score	G2 cells, % of GMNN control	raw share of cells in G2 (%)
MIMS2	1	-0.944	-3.68	0.744
MIMS2	2	0.0941	3.63	5.55
MIMS2	3	-0.862	-3.1	2.41
MTMR7	1	1.08	10.5	8.22
MTMR7	2	-0.167	1.79	4.84
MTMR7	3	-0.101	2.26	4.18
HTR1E	1	0.737	8.15	8.76
HTR1E	2	-0.201	1.55	5.06
HTR1E	3	-0.178	1.72	3.8
DDI1	1	3.37	26.7	14.9
DDI1	2	0.0022	2.98	5.96
DDI1	3	-0.458	-0.258	3.81
LTBP2	1	-0.597	-1.23	2.79
LTBP2	2	-0.295	0.891	5.82
LTBP2	3	-0.541	-0.836	5.04
XKR7	1	-0.776	-2.49	3.13
XKR7	2	2.45	20.2	12.1
XKR7	3	-0.579	-1.11	3.74
NRN1	1	-0.807	-2.71	2.63
NRN1	2	-1.09	-4.68	2.3
NRN1	3	1.79	15.5	8.33
CDK1	1	4.49	34.5	17
CDK1	2	4.08	31.7	16.1
CDK1	3	1.49	13.4	8.75
IFNG	1	-0.624	-1.42	4.64
IFNG	2	0.483	6.37	6.42
IFNG	3	-0.618	-1.38	2.98
TMEM45A	1	-0.896	-3.33	3.24
TMEM45A	2	0.644	7.5	7.25
TMEM45A	3	-0.191	1.63	3.66
ZC3H12D	1	-0.778	-2.51	3.18
ZC3H12D	2	1.11	10.8	7.7
ZC3H12D	3	-0.507	-0.599	3
NSMCE4A	1	1.15	11	7.55
NSMCE4A	2	0.132	3.9	5.91
NSMCE4A	3	5.44 (active)	41.3	16.8
CCL16	1	-1.2	-5.45	3.85
CCL16	2	-0.45	-0.2	4.48
CCL16	3	-0.215	1.45	4.44
LARP4	1	-0.673	-1.77	4.85
LARP4	2	1.11	10.8	9.6
LARP4	3	-0.427	-0.0384	4.47
ESM1	1	1.16	11.1	10.8
ESM1	2	-0.484	-0.439	4.01
ESM1	3	3.58	28.1	13.5
SLC25A45	1	2.94	23.6	14.6
SLC25A45	2	0.628	7.39	9.48
SLC25A45	3	-0.207	1.51	5.25

In a second layout: entries from further up
{"gene": "XKR7", "reagent": 3, "G2 robust z-score": -0.579, "G2 cells, % of GMNN control": -1.11, "raw share of cells in G2 (%)": 3.74}
{"gene": "NRN1", "reagent": 1, "G2 robust z-score": -0.807, "G2 cells, % of GMNN control": -2.71, "raw share of cells in G2 (%)": 2.63}
{"gene": "NRN1", "reagent": 2, "G2 robust z-score": -1.09, "G2 cells, % of GMNN control": -4.68, "raw share of cells in G2 (%)": 2.3}
{"gene": "NRN1", "reagent": 3, "G2 robust z-score": 1.79, "G2 cells, % of GMNN control": 15.5, "raw share of cells in G2 (%)": 8.33}
{"gene": "CDK1", "reagent": 1, "G2 robust z-score": 4.49, "G2 cells, % of GMNN control": 34.5, "raw share of cells in G2 (%)": 17}
{"gene": "CDK1", "reagent": 2, "G2 robust z-score": 4.08, "G2 cells, % of GMNN control": 31.7, "raw share of cells in G2 (%)": 16.1}
